In PubChem BioAssay AID504327 (National Center for Advancing Translational Sciences (NCATS), 2011):
Screen size: about 390,000 compounds; about 820 (0.21%) were called active. This list was built around the results that the source calls inconclusive (neither active nor inactive); the mix of calls is not that of the screen. The call rests on the fitted dose curve; in most records, active means well fitted inhibition curve with a large enough effect; inconclusive means small, poorly fitted or top-dose-only effect, or another doubt; inactive means no such curve, though single readings can be large or run the other way. Potencies beside an inconclusive call are fits to weak or partial responses and may not hold up. A structure can be active in one record and inactive in another.

Sequences of proteins named here, by UniProt entry; tags and fusion partners are left off.
UniProt Q92830, whole entry, looked up: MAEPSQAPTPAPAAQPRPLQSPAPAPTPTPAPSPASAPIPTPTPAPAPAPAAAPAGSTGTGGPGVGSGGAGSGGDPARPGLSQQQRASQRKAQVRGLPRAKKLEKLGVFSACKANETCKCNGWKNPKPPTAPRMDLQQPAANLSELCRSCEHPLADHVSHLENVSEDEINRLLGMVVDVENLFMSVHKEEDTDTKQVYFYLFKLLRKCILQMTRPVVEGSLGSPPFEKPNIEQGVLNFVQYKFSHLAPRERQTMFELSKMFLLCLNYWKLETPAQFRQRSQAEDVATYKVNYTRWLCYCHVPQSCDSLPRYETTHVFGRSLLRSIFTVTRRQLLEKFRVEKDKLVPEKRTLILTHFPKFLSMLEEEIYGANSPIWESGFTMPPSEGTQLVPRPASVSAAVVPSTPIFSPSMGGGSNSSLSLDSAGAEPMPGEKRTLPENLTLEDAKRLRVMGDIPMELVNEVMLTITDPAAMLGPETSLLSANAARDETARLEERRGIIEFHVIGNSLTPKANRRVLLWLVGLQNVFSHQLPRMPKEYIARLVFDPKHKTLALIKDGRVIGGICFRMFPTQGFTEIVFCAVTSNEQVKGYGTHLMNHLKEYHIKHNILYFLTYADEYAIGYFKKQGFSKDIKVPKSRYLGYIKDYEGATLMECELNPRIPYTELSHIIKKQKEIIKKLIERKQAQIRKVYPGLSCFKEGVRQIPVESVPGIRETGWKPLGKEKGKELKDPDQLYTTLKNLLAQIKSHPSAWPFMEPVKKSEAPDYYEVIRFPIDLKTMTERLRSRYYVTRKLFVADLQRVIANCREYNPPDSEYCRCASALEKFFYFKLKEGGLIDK

Target: Histone acetyltransferase KAT2A (Homo sapiens) (UniProt Q92830)
Test: qHTS Assay for Inhibitors of GCN5L2
Conditions: GCN5L2 HAT assay, ThioGlo1 CoA-SH fluorescence; series mostly up to 58.9 µM
In short: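 Fluorescence readout, Ex340nm/Em540nm: ThioGlo1 (50uM final) reacts with free CoA thiol released as 20nM GCN5L2 acetylates H3(1-25) peptide (75uM) using acetyl-CoA (70uM). Compound and enzyme sat 15 min beforehand; 20 min room-temperature reaction.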
Potency means the concentration at half of the fitted maximal effect.

SMILES | Potency
O=C(O)c1ccccc1NC(=O)c1ccccc1Nc1ccccc1 | inconclusive: 39.8 µM [inhibitor, single point]
CCOC(=O)c1nn(-c2ccc3c(c2)CCN3C(C)=O)cc1O | inconclusive: 28.2 µM [inhibitor, partial curve]
COc1ccccc1-c1cc(C(F)(F)F)nc(S(=O)(=O)CCCC(=O)Nc2ccc(F)c(Cl)c2)n1 | inactive
COc1ccc(-c2csc(NC(=O)Cn3nc(C)cc3C)n2)cc1 | inconclusive: 39.8 µM [inhibitor, single point]
CC(C)c1ccc(OCC(=O)NNC(=S)NC(=O)C2CC2)cc1 | inconclusive: 3.16 µM [inhibitor, full curve, poor fit]
Cc1c(NS(C)(=O)=O)cccc1-c1nc2ccccc2s1 | inactive
O=[N+]([O-])c1ccc(N2CCN(CCOCCO)CC2)c([N+](=O)[O-])c1 | inconclusive: 8.91 µM [inhibitor, partial curve, poor fit]
Cc1ccc(S(=O)(=O)NNC(=O)C(=O)NNS(=O)(=O)c2ccc(C)cc2)cc1 | inactive
O=C(Nc1cccc([N+](=O)[O-])c1)c1ccc(CSc2ccccc2)cc1 | inconclusive: 2.82 µM [inhibitor, full curve]
O=C(NC1CCCC1)c1ccc(CSc2nc3ccncc3n2Cc2ccc(F)cc2)cc1 | inactive
COc1ccc2nc(Nc3nc(-c4ccncc4)cs3)sc2c1 | inconclusive: 39.8 µM [inhibitor, single point]
CCn1nc(C)c(CNC(=O)CC2C(=O)NCCN2CC(C)C)c1C (configuration not stated) | inactive
Cc1ccccc1NC(=O)CN1C(=O)N/C(=C\c2ccc(N3CCOCC3)c(F)c2)C1=O | inconclusive: 8.91 µM [inhibitor, single point]
Cc1onc(-c2ccccc2)c1C(=O)N/N=C/c1ccc(O)c([N+](=O)[O-])c1 | inconclusive: 35.5 µM [inhibitor, single point]
CCCn1c(/N=C/c2ccccc2O)nc2ccccc21 | inconclusive: 0.891 µM [inhibitor, partial curve, poor fit]
Cc1ccccc1-n1ncc(C(C)NS(=O)(=O)c2sccc2C)c1C (configuration not stated) | inconclusive: 39.8 µM [inhibitor, single point]
Cc1occc1C(=O)N1CCN(S(=O)(=O)c2ccc(F)cc2)CC1 | inactive
Cc1csc(C(=O)NCC(=O)NNC(=O)c2cccc(Cl)c2)c1 | inconclusive: 1 µM [inhibitor, partial curve, poor fit]
NC(=O)C1CCCN(CCc2ccccc2)C1 (configuration not stated) | inconclusive: 0.631 µM [inhibitor, single point]
Cc1ccc(S(=O)(=O)N2CCN(C(=O)COC(=O)CCOc3ccccc3)CC2)c(C)c1 | inactive
CC1=C(/C=C/C(C)=C/C=C/C(C)=C/C(=O)O)C(C)(C)CCC1 | active: 31.6 µM
Cc1onc(-c2ccccc2)c1C(=O)Nc1sc2c(c1C(N)=O)CCC2 | inactive
Cn1c(-c2csc(-c3cccc(C(F)(F)F)c3)n2)n[nH]c1=S | inactive
S=c1[nH]nc(CSCc2ccccc2Cl)n1-c1ccccc1 | inconclusive: 6.31 µM [inhibitor, single point]

SMILES | Potency
Clc1ccccc1C(c1nnnn1Cc1ccco1)N1CCN(Cc2ccco2)CC1 (configuration not stated) | inactive
C[C@H](NC(=O)c1nc[nH]c1C(=O)N[C@@H](Cc1ccccc1)C(=O)OCc1ccccc1)C(=O)OCc1ccccc1 | inconclusive: 31.6 µM [inhibitor, single point]
Cc1ccc(-n2[nH]c(C)c(/C=N/Nc3ccc([N+](=O)[O-])cc3[N+](=O)[O-])c2=O)cc1C | inconclusive: 39.8 µM [inhibitor, single point]
CC(CN1C(C)CCCC1C)OC(=O)c1ccccc1Br (configuration not stated) | inconclusive: 39.8 µM [inhibitor, single point]
Brc1cccc(/C=N/Nc2nn[nH]n2)c1 | inactive
CC(=O)Nc1ccccc1-c1nc2ccccc2n(CC(=O)Nc2ccc(C)c(Cl)c2)c1=O | inactive
CS(=O)(=O)C1=NSC2=NC(=O)/C(=C\c3ccc(OS(=O)(=O)c4ccccc4)cc3)C(=N)N21 | inconclusive: 0.794 µM [inhibitor, full curve, poor fit]
O=C(CCNC(=O)c1ccc(Cl)cc1)Nc1ccc(S(=O)(=O)N2CCCCC2)cc1 | inactive
CC(C)c1nnc2n1N=C(c1ccc(Cl)cc1)CS2 | inactive
CC(NC(=O)c1ccco1)C(=O)N1CCN(c2ccccc2)CC1 (configuration not stated) | inconclusive: 0.141 µM [inhibitor, full curve, poor fit]
COc1cc(N2CCCC2)ccc1C=O | inactive
COc1ccccc1-c1cc(-c2ccc(O)cc2)nc(N)c1C#N | inactive
CCOc1ccc(NC(=O)Cn2cc(S(=O)(=O)c3ccc(C)cc3)c(=O)c3cc(F)ccc32)cc1 | inactive
CCc1ccccc1NC(=O)CC(C)S(=O)(=O)c1ccc2c(c1)NC(=O)CO2 (configuration not stated) | inactive
O=C(OCc1nc2ccsc2c(=O)[nH]1)c1ccccc1 | inconclusive: 4.47 µM [inhibitor, single point]
CCCCCC#CCC#CCC#CCC#CCCCC(=O)O | active: 2.24 µM
O=C(Nc1cccc(Cl)c1)OCC#CCCl | inconclusive: 6.31 µM [inhibitor, single point]
COCCSc1ccccc1C(=O)Nc1cc(C)on1 | inconclusive: 35.5 µM [inhibitor, single point]
CC(C)=CC[C@@H](O)C1=CC(=O)c2c(O)ccc(O)c2C1=O | active: 25.1 µM
CCOC(=O)N1CCN(CC(O)COc2ccc(C)c(C)c2)CC1 (configuration not stated) | inconclusive: 35.5 µM [inhibitor, single point]
CC(O)C(O)[C@H]1CNc2nc(N)[nH]c(=O)c2N1 (some centres not stated) | inconclusive: 28.2 µM [inhibitor, single point]
O=C(N/N=C/c1cccc([N+](=O)[O-])c1)c1ccc2c(c1)OCCO2 | inconclusive: 0.891 µM [inhibitor, single point]
Cc1ccc(C)c(NC(=O)CCN2CCN(CCO)CC2)c1 | inconclusive: 3.98 µM [inhibitor, single point]

Reprinted at random: two compounds from above.
SMILES | Potency
O=C(Nc1cccc(Cl)c1)OCC#CCCl | inconclusive: 6.31 µM [inhibitor, single point]
COc1ccccc1-c1cc(-c2ccc(O)cc2)nc(N)c1C#N | inactive
